Test results: the supplement of paper PMC12578635
The list shows a part of the results. No stated cut-off is given here; in the data, active = 150% or more and inactive = the rest. Single values are uncertain, as repeats are few or missing.

Tested on: Staphylococcus aureus JE2-lux inside RAW 264.7 macrophages
Test: intracellular bacterial bioluminescence relative to DMSO vehicle; higher = higher intracellular bacterial metabolic activity
Conditions: 10 µM; treatment time 4 h; gentamicin 50 µg/ml

Intracellular bacterial bioluminescence, inactive:
CCOC(=O)c1ccccc1NC(=O)CSc1nc(=O)n(CCN(CC)CC)c2c1CCCC2 113%, COc1cccc(C(=O)N2CC(=O)Nc3ccc(Cl)cc3C2c2ccc(F)cc2)c1OC (stereo not drawn) 104%, Cc1cn2c3c(=O)n(C/C=C/c4ccccc4)c(=O)n(C)c3nc2n1-c1ccccc1F 118%, Cc1ccc(Cc2nnc(-c3cccc(NS(=O)(=O)c4ccc(N5CCCC5=O)cc4)c3)o2)cc1 80.9%, COc1ccc(CNC(=O)Cn2nnc(-c3ccc(Cl)cc3)n2)cc1 66.1%, O=C(CCCN1C(=O)c2cccc3cccc(c23)C1=O)Nc1ccon1 28.7%, Cc1cc(C)c2cc(CN(C(=O)c3cnccn3)C3CCCC3)c(Cl)nc2c1 110%, O=C(CSc1ncc(CO)n1Cc1ccccc1)Nc1nccs1 105%, O=C1c2cccc3cccc(c23)C(=O)N1CCc1ccc(S(=O)(=O)N2CCCCC2)cc1 110%, CCn1c2ccccc2n2c(=O)n(CC(=O)NC(C)(C)C)nc12 97.7%, COc1ccc(CNc2nc3c(S(=O)(=O)c4ccc(F)cc4)nnn3c3ccccc23)cc1 136%, O=C(C1=C(O)C(=O)N(CCCn2ccnc2)C1c1ccccn1)c1ccccc1 (stereo not drawn) 142%, Nc1nc(SCCCC(=O)NC2CCCCC2)nc2sc3c(c12)CCCC3 130%, Oc1ccc(Nc2nc(-c3ccccc3)c3cc(Cl)ccc3n2)cc1 106%, COC(=O)Cn1/c(=N/C(=O)CSCC(=O)Nc2cc(C)on2)sc2cc(OC)ccc21 50.2%, Cn1ncc2c1CCc1sc(NC(=O)COCC3CCCCO3)nc1-2 (stereo not drawn) 105%, COc1cccc(NC(=O)NNc2nc3c(-c4ccccc4)nnn3c3ccccc23)c1 110%, Cc1cccc2cc(CN(Cc3ccc4c(c3)OCO4)C(=O)NCc3ccccc3)c3nnnn3c12 118%, COc1ccc(-c2cnnn2-c2ccc(NC(=O)c3cc4ccccc4oc3=O)cc2)cc1OC 68.7%, COC(=O)c1ccc(CSc2ncnc3c2nnn3-c2ccc(OC)cc2)o1 115%, O=C(CSc1nnc2c(n1)[nH]c1ccc(F)cc12)NC1CCCCCC1 64%, O=C(CN1C(=O)CCC1=O)Nc1ncc(S(=O)(=O)c2ccc([N+](=O)[O-])cc2)s1 73.1%, Cn1c(=O)n(CC(=O)N2CCCC(c3ccccc3)C2)c2cccnc21 (stereo not drawn) 48%, O=C(c1c(-c2ccccc2)nnc2ccccc12)N1CC=C(c2ccccc2)CC1 70.7%, O=C(CSc1nc2ccccc2o1)N1CCc2ccccc21 117%, CCOC(=O)c1ccccc1NC(=O)COc1cc(=O)n(-c2ccccc2Cl)nc1C(=O)OCC 61.1%, Cc1nc(OCC(=O)NCc2cccnc2)c2c(C)c(C)oc2n1 122%, CCN(CC)c1nc(N2CCOCC2)c2cnn(C)c2n1 95.4%, O=S(=O)(c1ccc(-c2noc(-c3cc4cc(Cl)ccc4[nH]3)n2)cc1)N1CCCC1 91%, O=C(NCCc1ccc(Cl)cc1)C(=O)Nc1ccc(F)c(F)c1 83.7%, COc1cc(NC(=O)c2nn(C)c(C(F)(F)F)c2Cl)cc(OC)c1 105%, O=C1Cc2cc(NC(=O)c3ccccc3Br)ccc2N1 116%, CCC(SC1=Nc2ccccc2C2=NC(C(C)C)C(=O)N12)C(=O)Nc1ccc(OC)cc1OC (stereo not drawn) 114%, NC(=O)CSc1ncnc2c1oc1ccccc12 117%, Cc1ccc(Cl)cc1NC(=O)C(C)Sc1nc2ncccc2o1 (stereo not drawn) 100%, Cc1oc(-c2ccno2)cc1S(=O)(=O)Nc1ccc2c(c1)OCO2 79.2%, CC1(C)CC(=O)C2=C(C1)Nc1[nH]c(=O)[nH]c(=O)c1C2c1ccc(-c2cccc(C(F)(F)F)c2)o1 (stereo not drawn) 99.5%, COc1cc2cc3c(N)c(C(=O)N4c5ccccc5CC4C)sc3nc2cc1OC (stereo not drawn) 49.9%, COCCn1c2ccccc2n2c(=O)n(CC(=O)NC3CCCC3)nc12 123%, CC1(C)CC(=O)C2=C(C1)Nc1nc(SCc3ccccc3F)[nH]c(=O)c1C2c1ccccn1 (stereo not drawn) 90.2%, COc1ccc2c(O)c(C(=O)NCCc3ccccc3)cnc2c1 91.7%, CC(Oc1ccccc1)C(=O)N1CCN=C1SCc1cccnc1 (stereo not drawn) 91.2%, Cc1cccc(-c2nc(N)n(C(=O)c3ccco3)n2)c1 129%, Cc1cccc(NC(=O)CSc2nc3c(c(-c4ccco4)c2C#N)CCCC3)c1 143%, CCOc1ccc(N2CC(NC(=O)Nc3ncccc3C)CC2=O)cc1 (stereo not drawn) 94%, COc1ccc2ncc(C(=O)NC3CCCC3)c(O)c2c1 100%, Cc1cc(Br)ccc1NS(=O)(=O)c1c[nH]c(=O)[nH]c1=O 112%, CC(=O)c1ccc(C(=O)N(Cc2ccncc2)c2nc3c(C)ccc(Cl)c3s2)cc1 96.7%, Cc1ccc(C)c(NC(=O)CS(=O)(=O)c2cn(C)c3ccccc23)c1 87.4%, O=C(COc1ncnc2ccccc12)Nc1cccc(-c2csnn2)c1 4.53%, CC(CNC(=O)Cn1c(-c2cccs2)cc2cccnc21)n1cncn1 (stereo not drawn) 78%, N#CC1=C(S)N(c2ccc(F)cc2)C(c2ccco2)NC1=O (stereo not drawn) 96.7%, Cc1ccc2cc(CCNC(=O)C3CC3)c(=O)[nH]c2c1C 83.7%, O=c1[nH]c2ccccc2n1CCCSc1cccc2cccnc12 11.4%, Cc1ccccc1NC(=O)NC1CC2CCC(C1)N2Cc1ccccc1 (stereo not drawn) 73%, Brc1ccc2[nH]c3nc(SCc4nc5ccccc5[nH]4)nnc3c2c1 65.9%, Cc1ccc(C2C(C#N)=C(SCC(=O)N3c4ccccc4CC3C)NC3=C2C(=O)CCC3)o1 (stereo not drawn) 37%, COC(=O)c1ccc2c(c1)C1CC(C)(O2)N(c2ccc(OC)c(OC)c2)C(=O)N1 (stereo not drawn) 79.2%
